# Results as given in patent US20250295799A1 (Zymeworks BC Inc., priority 2022, published 2025).
# Assay: general procedure: solution-phase peptide synthesis; HATU
Substance,step yield (late stage modification step),further results
"2-((2-(((S)-1-((2-(((S)-4-ethyl-8-fluoro-4-hydroxy-3,14-dioxo-3,4,12,14-tetrahydro-1H-pyrano[3′,4′:6,7]indolizino[1,2-b]quinolin-9-yl)amino)-2-oxoethyl)amino)-1-oxo-3-phenylpropan-2-yl)amino)-2-oxoethyl)amino)-2-oxoethan-1-aminium",–,step yield (coupling step): 88%
"(9H-fluoren-9-yl)methyl ((7S)-1-((3-azabicyclo[3.1.1]heptan-6-yl)oxy)-7-benzyl-3,6,9,12-tetraoxo-2,5,8,11-tetraazatridecan-13-yl)carbamate",46%,–
"(9H-fluoren-9-yl)methyl (S)-(9-benzyl-1-(3-fluoroazetidin-3-yl)-5,8,11,14-tetraoxo-2-oxa-4,7,10,13-tetraazapentadecan-15-yl)carbamate",54%,–
"(S)-16-amino-10-benzyl-6,9,12,15-tetraoxo-3-oxa-5,8,11,14-tetraazahexadecyl (((S)-4-ethyl-8-fluoro-4-hydroxy-9-methyl-3,14-dioxo-3,4,12,14-tetrahydro-1H-pyrano[3′,4′:6,7]indolizino[1,2-b]quinolin-11-yl)methyl)carbamate",–,"conjugation yield (conjugation step, TFA salt): 39%"
